Reference: PubChem BioAssay AID2685 (National Center for Advancing Translational Sciences (NCATS), 2010)
This is one part of the list. The main result of the screen is listed elsewhere. These columns were measured beside it and carry no call. Most of these compounds were active or inconclusive in the main read-out, so they are no random draw. Potencies come from curve fits of mixed quality, noted in brackets.

Assay: qHTS Assay for Lipid Storage Modulators in Drosophila S3 Cells;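 as to cell number change: cells counted by Cell Tracker Red CMTPX staining in the red channel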
Details: BODIPY lipid droplet fluorescence, 18-24 h; for cell number change: measured here: cell count max response, cells fed with added oleic acid
Outline: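 Drosophila S3 cells loaded with oleic acid (400 uM, as added) and compounds at several concentrations; lipid droplets imaged by 488-nm laser-scanning cytometry, 500–530 nm intensity and object ratio to cell channel. Percent activity normalized to 20 uM Triacsin C.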

[1] = measured here: lipid fluorescence (Fed channel) AC50, cells fed with added oleic acid
[2] = measured here: cell number channel AC50, cells fed with added oleic acid

Row | Structure (SMILES) | cell number change [%] | AC50 [1] | AC50 [2]
1 | Cc1cccnc1NC(=O)c1cc2c(=O)oc3ccccc3c2s1 | 7.56 | 1.64 µM [rising, full curve] | –
2 | O=C(NCCc1ccccc1)C(=O)NN=C1CCCC1 | – | 20.6 µM [falling, single point] | –
3 | CCOc1c(Br)cc(C(=O)NCCCn2ccnc2)cc1OC | 28 | 6.51 µM [rising, partial curve] | –
4 | COc1ccc(CCNC(=O)CN2C(=O)CSc3ccc(S(=O)(=O)N4CCOCC4)cc32)cc1OC | -16.5 | 6.51 µM [rising, partial curve, poor fit] | 1.46 µM [rising, partial curve, poor fit]
5 | N#Cc1c(N)nc2c3c(sc(=N)c2c1N)NC(=O)CC3c1ccccc1 (configuration not stated) | -89.3 | – | 29.1 µM [falling, partial curve, poor fit]
6 | N#Cc1cc(C#N)c(SCC(=O)NCC2CCCO2)nc1N (configuration not stated) | -18.1 | 6.51 µM [rising, single point] | –
7 | O=C(NCC1CCCO1)C1CCCN(S(=O)(=O)c2ccc(Br)cc2)C1 (configuration not stated) | 13.5 | 6.51 µM [falling, single point] | –
8 | O=C(N1CCOCC1)N1CCN(c2ccc(F)cc2)CC1 | -65.7 | 0.146 µM [falling, full curve, poor fit] | 1.3 µM [falling, full curve]
9 | O=C(O)/C=C\c1ccccc1Oc1cccc(Cl)c1 | 52.8 | – | –
10 | CC1=CC(C)(C)n2c(O)c(N=N)c3cc(C)cc1c32 | 18.8 | 6.51 µM [rising, partial curve] | 6.51 µM [rising, single point]
11 | O=C(Cc1ccccc1Cl)Nc1cccnc1 | -15.7 | – | –
12 | COc1cc2c(cc1OC)C(C(=O)NCc1ccco1)C(c1cccs1)N(C)C2=O (configuration not stated) | 21 | – | –
13 | CCC(=O)NC1(C(F)(F)F)C(=O)Nc2c1c(=O)[nH]c(=O)n2Cc1ccco1 (configuration not stated) | 66.1 | 0.0517 µM [rising, full curve, poor fit] | 5.17 µM [rising, single point]
14 | O=S(=O)(c1ccc(F)cc1)N1CCN(c2nc(-c3cccnc3)nc3ccccc23)CC1 | 3.92 | 0.366 µM [rising, partial curve, poor fit] | 0.00411 µM [rising, full curve, poor fit]
15 | O=C(CN=C1NS(=O)(=O)c2ccccc21)OCC(=O)c1cc(F)ccc1F | 7.22 | – | –
16 | O=C(c1ccc(Cl)cc1)N1CCCC(C(=O)N2CCc3ccccc3C2)C1 (configuration not stated) | – | – | 0.146 µM [rising, partial curve, poor fit]
17 | O=C(NCC1CCCO1)c1ccccc1OCc1ccc(F)cc1 (configuration not stated) | -50 | – | 6.51 µM [falling, partial curve]
18 | Cc1ccc(Nc2nc3nonc3[nH]c2=O)cc1Cl | -44.6 | 8.2 µM [falling, partial curve] | 18.4 µM [falling, partial curve, poor fit]
19 | COc1ccc(CC(=O)NNC(=O)c2c(-c3ccccc3Cl)noc2C)cc1OC | 5.98 | 0.731 µM [falling, full curve] | 0.82 µM [falling, full curve, poor fit]
20 | COc1ccc(N2CCN(S(=O)(=O)CC34CCC(CC3=O)C4(C)C)CC2)cc1 (configuration not stated) | -34.9 | – | 20.6 µM [falling, single point]

Retrieved by compound from the list above:
Row | Structure (SMILES) | cell number change [%] | AC50 [1] | AC50 [2]
13 | CCC(=O)NC1(C(F)(F)F)C(=O)Nc2c1c(=O)[nH]c(=O)n2Cc1ccco1 (configuration not stated) | 66.1 | 0.0517 µM [rising, full curve, poor fit] | 5.17 µM [rising, single point]
11 | O=C(Cc1ccccc1Cl)Nc1cccnc1 | -15.7 | – | –
20 | COc1ccc(N2CCN(S(=O)(=O)CC34CCC(CC3=O)C4(C)C)CC2)cc1 (configuration not stated) | -34.9 | – | 20.6 µM [falling, single point]
6 | N#Cc1cc(C#N)c(SCC(=O)NCC2CCCO2)nc1N (configuration not stated) | -18.1 | 6.51 µM [rising, single point] | –

(more compounds)

Row | Structure (SMILES) | cell number change [%] | AC50 [1] | AC50 [2]
21 | N#Cc1c(N)c(C(=O)c2ccccc2)n2c1CCC2 | -9.4 | – | 6.51 µM [falling, single point]
22 | Cc1cc(N2CCN(S(=O)(=O)c3ccc(Cl)c(Cl)c3)CC2)c2ccccc2n1 | 41.1 | 0.00731 µM [falling, full curve, poor fit] | 16.4 µM [rising, single point]
23 | Cc1cc(C)c(S(=O)(=O)N2CCCC(C(=O)NCCC3=CCCCC3)C2)c(C)c1 (configuration not stated) | -24.6 | 0.366 µM [falling, full curve] | –
24 | Cc1ccccc1CN(c1ccc(C(=O)NCCC2=CCCCC2)cc1)S(C)(=O)=O | 2.26 | 29.1 µM [falling, single point] | –
25 | O=C(CCc1nnc2ccc(NCc3ccccc3)nn12)NC1CCCCC1 | -28.3 | 5.17 µM [rising, full curve] | 0.058 µM [falling, full curve, poor fit]
26 | COc1c(Br)cc(Br)cc1/C=N/NC(=O)c1cccnc1 | 15.4 | 29.1 µM [falling, single point] | –
27 | O=C(Nc1nc(-c2ccccc2)cs1)Nc1ccc(F)cc1F | -23.8 | 25.9 µM [falling, single point] | –
28 | COc1ccc(NCc2nnc(SCC(=O)Nc3cc(C)cc(C)c3)o2)cc1 | -6.41 | – | –
29 | S=C(NC1CCCC1)N1CCOCC1 | -22.7 | – | 0.0651 µM [falling, full curve, poor fit]
30 | CC(=O)Nc1ccc(NS(=O)(=O)C(F)(F)F)cc1 | 2.63 | – | –
31 | Cc1ccc(C(=O)NCCc2nc3ccccc3[nH]2)cc1[N+](=O)[O-] | -31.1 | 14.6 µM [falling, partial curve] | 2.06 µM [falling, partial curve]
32 | O=C(NC1CCCC1)C(c1ccccn1)N(C(=O)c1csnn1)c1ccccc1Cl (configuration not stated) | -4.2 | 11.6 µM [rising, partial curve, poor fit] | –
33 | COc1ccc(CNc2ncc(-c3ccc(F)cc3)n2C)cc1OC | 2.64 | – | –
34 | Clc1cccc(OCCN2CCN(CCOc3cccc(Cl)c3)CC2)c1 | -52.4 | 29.1 µM [falling, partial curve, poor fit] | 18.4 µM [falling, partial curve]
35 | O=C(c1ccccc1)c1ccc(CN2C(=O)c3ccccc3C2=O)o1 | 1.79 | – | –
36 | Cc1nc(Cl)sc1C(=O)Nc1ccc(Cl)cc1 | -21.3 | 18.4 µM [rising, single point] | –
37 | Cc1nn(C)c(Cl)c1C(=O)NCC(=O)Nc1ccc(C(C)C)cc1 | 24.1 | – | –
38 | CCOC(=O)c1c(C)nsc1NC(=O)c1ccco1 | -24.7 | – | –
39 | O=C(CN1C(=O)c2cccnc2Oc2ccc(Cl)cc21)NC1CCCCC1 | 13 | 6.51 µM [rising, full curve] | –
40 | Cc1cc(=O)oc2cc(OCC(=O)Nc3cccc(S(=O)(=O)N(C)C)c3)ccc12 | – | 29.1 µM [rising, single point] | –

Row | Structure (SMILES) | cell number change [%] | AC50 [1] | AC50 [2]
41 | O=C(Nc1ccccc1)c1n[nH]c(Cn2cncn2)n1 | 0.862 | 4.61 µM [falling, single point] | –
42 | CCOC(=O)c1oc2cccc(O)c2c1C | -1.25 | 3.26 µM [falling, partial curve, poor fit] | –
43 | Cc1ccc(-c2nnc(N3CCN(C(=O)c4cccs4)CC3)c3ccccc23)cc1 | 16.2 | 0.0366 µM [rising, full curve, poor fit] | 0.651 µM [rising, partial curve, poor fit]
44 | NS(=O)(=O)c1cccnc1Nc1ccc(Cl)c(Cl)c1 | -27.2 | – | –
45 | O=C(NC1CCCCC1)C(c1ccc(O)cc1)N(C(=O)c1cnccn1)c1cccc(F)c1 (configuration not stated) | -8.97 | – | –
46 | CC1CCN(c2ccccc2NC(=O)c2ccc(N3CCOCC3)c([N+](=O)[O-])c2)CC1 | -56.8 | – | 29.1 µM [falling, single point]
47 | Cc1ccn2cc(CCNC(=O)COc3ccccc3)nc2c1 | -1.05 | – | –
48 | CCc1nnc(NC(=O)CCN2C(=O)CCC2=O)s1 | 4.28 | 2.59 µM [rising, partial curve] | –
49 | CCOc1ccc(CCNC(=O)CCNS(=O)(=O)c2ccc(Br)cc2)cc1OCC | 4.69 | 20.6 µM [falling, single point] | –
50 | CCOc1ccccc1C(=O)N/N=C/c1cccc2cccnc12 | -25.7 | 16.4 µM [falling, partial curve, poor fit] | –
51 | CN(CC(=O)Nc1ccc(F)cc1)C(=O)Cn1c(=O)oc2ccccc21 | 32 | 1.46 µM [rising, partial curve, poor fit] | –
52 | Cc1cc(C)c(C(=O)CC2(O)C(=O)Nc3ccccc32)cc1C (configuration not stated) | 21.6 | 32.6 µM [rising, single point] | –
53 | CCN1C(=O)[C@H]2[C@@H](c3ccc(SC4CCCCC4)cc3)N3CCCC[C@@]3(C(=O)OC)[C@H]2C1=O | 4.75 | 0.58 µM [rising, single point] | –
54 | CC(C)C(C(=O)C=[N+]=[N-])N1C(=O)c2ccccc2C1=O (configuration not stated) | -8.5 | 1.3 µM [rising, full curve, poor fit] | 2.59 µM [falling, single point]
55 | COc1ccc(/C(N)=N/OC(=O)CSc2ccccc2)cc1 | 90.6 | – | 8.2 µM [rising, partial curve]
56 | CCOc1ccc(NS(=O)(=O)c2ccc(OC)c(NC(=O)c3ccc4c(c3)OCCO4)c2)cc1 | 30.5 | 8.2 µM [rising, partial curve] | 5.17 µM [rising, partial curve]
57 | COCCCn1c(SCC(=O)Nc2ccc(NC(=O)c3ccco3)c(OC)c2)nc2ccccc2c1=O | -78.8 | 29.1 µM [falling, single point] | 29.1 µM [falling, single point]
58 | C=CCNc1nc(N)c(C(=C(C#N)C#N)c2ccc(Br)cc2)s1 | -3.65 | 2.31 µM [falling, partial curve, poor fit] | –
59 | CSc1nc2ccc(NC(=O)c3c(-c4ccccc4)noc3C)cc2s1 | -2.06 | 0.00461 µM [falling, full curve, poor fit] | –
